Experimental data: the supplement of paper PMC7666118
The list shows a part of the results.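 How the source made its calls: active = dose-dependent thermal stabilisation significant by F-test of dose-response against flat model at 10% FDR; inactive = not significant.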

By UniProt entry, the sequences of proteins in these tests, tags left out. Where a name states a change or a piece, a line headed by the entry shows the natural chain unless it says otherwise.
UniProt Q9UG63: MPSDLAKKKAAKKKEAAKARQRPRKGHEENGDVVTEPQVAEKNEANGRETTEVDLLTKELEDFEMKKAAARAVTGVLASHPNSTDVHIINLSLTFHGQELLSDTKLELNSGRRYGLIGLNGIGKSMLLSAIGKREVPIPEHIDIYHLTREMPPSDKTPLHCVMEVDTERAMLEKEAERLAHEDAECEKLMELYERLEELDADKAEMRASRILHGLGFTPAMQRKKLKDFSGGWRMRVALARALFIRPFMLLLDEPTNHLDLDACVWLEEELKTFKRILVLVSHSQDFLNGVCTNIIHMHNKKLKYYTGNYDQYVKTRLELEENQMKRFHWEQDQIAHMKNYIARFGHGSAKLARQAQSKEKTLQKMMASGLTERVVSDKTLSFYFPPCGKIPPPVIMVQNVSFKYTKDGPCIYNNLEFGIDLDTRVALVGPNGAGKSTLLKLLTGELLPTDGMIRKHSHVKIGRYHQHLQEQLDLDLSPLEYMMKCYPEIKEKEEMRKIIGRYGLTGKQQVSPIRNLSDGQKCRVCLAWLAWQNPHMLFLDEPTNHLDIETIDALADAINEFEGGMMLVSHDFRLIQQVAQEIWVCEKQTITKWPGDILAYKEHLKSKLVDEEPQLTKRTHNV
UniProt Q6ZN18: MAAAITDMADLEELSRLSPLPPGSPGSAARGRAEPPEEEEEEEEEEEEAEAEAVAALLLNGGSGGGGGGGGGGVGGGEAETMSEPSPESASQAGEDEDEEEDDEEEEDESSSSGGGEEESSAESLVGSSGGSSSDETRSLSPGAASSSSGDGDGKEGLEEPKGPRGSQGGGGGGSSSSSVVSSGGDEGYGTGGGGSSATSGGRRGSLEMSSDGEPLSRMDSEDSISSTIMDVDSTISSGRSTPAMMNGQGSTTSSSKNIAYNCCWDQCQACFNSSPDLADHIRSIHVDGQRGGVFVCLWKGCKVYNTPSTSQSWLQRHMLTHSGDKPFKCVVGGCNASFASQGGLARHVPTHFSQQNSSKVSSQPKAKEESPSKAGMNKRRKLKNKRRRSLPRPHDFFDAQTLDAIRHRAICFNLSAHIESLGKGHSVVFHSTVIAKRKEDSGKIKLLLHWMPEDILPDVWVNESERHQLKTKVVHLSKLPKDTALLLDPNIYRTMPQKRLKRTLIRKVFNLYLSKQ
UniProt Q04828: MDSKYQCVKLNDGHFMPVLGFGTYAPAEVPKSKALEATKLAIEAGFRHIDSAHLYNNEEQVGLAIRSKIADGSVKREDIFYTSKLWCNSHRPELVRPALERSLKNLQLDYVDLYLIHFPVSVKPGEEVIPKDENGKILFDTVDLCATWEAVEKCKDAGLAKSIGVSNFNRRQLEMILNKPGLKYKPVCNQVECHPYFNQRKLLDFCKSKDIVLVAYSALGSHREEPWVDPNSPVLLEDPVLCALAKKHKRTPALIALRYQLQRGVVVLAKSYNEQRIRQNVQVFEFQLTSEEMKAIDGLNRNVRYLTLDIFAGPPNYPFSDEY
UniProt Q12904: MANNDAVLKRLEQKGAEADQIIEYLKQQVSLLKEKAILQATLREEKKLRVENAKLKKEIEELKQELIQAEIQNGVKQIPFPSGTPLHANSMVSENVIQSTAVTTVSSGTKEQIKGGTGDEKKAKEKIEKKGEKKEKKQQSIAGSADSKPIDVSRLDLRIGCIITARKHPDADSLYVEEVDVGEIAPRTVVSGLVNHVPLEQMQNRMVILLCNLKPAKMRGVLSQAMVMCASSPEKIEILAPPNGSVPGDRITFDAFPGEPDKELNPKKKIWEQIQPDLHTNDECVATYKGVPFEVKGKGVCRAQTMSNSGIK
UniProt Q9Y6D5: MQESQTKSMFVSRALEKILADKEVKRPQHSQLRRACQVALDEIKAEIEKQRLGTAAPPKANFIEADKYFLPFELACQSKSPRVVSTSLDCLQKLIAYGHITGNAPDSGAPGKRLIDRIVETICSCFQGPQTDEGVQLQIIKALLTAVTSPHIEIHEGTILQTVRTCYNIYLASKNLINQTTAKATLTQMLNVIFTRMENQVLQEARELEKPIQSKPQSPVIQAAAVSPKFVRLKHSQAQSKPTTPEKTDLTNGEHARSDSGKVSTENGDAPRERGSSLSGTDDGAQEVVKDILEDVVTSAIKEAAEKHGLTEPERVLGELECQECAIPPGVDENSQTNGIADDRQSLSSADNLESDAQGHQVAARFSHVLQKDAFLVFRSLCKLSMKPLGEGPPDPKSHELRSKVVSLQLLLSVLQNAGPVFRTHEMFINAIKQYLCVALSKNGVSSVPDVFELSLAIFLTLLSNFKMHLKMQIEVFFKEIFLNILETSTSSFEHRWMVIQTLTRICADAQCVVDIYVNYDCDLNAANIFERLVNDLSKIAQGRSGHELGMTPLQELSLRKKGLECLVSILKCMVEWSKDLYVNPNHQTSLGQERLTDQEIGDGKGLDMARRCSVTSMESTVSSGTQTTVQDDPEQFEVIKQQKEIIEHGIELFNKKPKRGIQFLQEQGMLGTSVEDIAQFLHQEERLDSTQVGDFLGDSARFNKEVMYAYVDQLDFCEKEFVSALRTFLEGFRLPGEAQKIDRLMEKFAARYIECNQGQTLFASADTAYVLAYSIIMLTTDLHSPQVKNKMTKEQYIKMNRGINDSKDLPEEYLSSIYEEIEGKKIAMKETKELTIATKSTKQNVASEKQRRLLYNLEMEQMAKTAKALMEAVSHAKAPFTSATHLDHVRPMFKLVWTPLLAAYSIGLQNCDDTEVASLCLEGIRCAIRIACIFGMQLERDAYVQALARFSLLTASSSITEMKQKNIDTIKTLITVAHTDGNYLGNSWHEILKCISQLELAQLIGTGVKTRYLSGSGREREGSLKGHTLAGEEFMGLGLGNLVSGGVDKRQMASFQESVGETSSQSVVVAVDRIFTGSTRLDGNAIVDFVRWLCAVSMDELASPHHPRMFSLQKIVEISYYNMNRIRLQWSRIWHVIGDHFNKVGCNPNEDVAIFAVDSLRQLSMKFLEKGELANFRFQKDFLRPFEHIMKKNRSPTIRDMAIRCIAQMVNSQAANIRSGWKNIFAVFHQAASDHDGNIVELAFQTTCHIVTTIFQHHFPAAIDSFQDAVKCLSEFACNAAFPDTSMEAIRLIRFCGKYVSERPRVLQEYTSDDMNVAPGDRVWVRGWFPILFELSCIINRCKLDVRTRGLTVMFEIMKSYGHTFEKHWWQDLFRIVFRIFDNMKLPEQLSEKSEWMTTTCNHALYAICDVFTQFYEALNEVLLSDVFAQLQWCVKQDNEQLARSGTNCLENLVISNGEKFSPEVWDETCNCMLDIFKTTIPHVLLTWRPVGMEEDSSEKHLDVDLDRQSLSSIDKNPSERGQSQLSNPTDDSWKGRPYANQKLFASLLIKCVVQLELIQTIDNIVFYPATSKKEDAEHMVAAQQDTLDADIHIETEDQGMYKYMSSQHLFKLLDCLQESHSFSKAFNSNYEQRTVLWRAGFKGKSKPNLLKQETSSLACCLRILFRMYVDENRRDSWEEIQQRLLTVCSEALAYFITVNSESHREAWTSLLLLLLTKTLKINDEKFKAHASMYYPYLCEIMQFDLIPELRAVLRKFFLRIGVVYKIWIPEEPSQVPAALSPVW
UniProt O15084: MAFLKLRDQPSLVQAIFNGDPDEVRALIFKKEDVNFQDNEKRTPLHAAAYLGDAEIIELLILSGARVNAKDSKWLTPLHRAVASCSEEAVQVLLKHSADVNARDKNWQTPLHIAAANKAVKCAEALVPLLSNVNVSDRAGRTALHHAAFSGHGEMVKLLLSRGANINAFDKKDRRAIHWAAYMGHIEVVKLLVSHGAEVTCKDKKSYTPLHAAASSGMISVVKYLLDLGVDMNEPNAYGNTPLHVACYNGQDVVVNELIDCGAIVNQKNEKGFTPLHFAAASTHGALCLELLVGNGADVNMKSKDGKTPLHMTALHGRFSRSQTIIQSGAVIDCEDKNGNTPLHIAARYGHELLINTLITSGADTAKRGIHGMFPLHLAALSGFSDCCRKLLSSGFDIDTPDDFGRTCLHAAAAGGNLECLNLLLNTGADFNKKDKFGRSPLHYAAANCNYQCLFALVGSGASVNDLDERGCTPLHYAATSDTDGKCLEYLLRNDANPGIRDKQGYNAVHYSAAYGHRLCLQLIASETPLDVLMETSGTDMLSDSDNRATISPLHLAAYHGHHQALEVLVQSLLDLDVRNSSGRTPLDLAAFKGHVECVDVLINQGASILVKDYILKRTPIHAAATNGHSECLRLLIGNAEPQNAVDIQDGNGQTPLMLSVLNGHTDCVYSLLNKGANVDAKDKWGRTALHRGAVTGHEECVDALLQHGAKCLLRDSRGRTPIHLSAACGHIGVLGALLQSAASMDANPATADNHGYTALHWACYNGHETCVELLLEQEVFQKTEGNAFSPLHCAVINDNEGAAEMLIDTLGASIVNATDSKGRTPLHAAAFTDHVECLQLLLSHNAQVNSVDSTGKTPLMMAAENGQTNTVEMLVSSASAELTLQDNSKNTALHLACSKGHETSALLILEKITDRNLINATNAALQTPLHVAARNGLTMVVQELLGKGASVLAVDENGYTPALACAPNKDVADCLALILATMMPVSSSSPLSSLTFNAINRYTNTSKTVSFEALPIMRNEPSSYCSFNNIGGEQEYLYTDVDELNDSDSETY
UniProt O43823: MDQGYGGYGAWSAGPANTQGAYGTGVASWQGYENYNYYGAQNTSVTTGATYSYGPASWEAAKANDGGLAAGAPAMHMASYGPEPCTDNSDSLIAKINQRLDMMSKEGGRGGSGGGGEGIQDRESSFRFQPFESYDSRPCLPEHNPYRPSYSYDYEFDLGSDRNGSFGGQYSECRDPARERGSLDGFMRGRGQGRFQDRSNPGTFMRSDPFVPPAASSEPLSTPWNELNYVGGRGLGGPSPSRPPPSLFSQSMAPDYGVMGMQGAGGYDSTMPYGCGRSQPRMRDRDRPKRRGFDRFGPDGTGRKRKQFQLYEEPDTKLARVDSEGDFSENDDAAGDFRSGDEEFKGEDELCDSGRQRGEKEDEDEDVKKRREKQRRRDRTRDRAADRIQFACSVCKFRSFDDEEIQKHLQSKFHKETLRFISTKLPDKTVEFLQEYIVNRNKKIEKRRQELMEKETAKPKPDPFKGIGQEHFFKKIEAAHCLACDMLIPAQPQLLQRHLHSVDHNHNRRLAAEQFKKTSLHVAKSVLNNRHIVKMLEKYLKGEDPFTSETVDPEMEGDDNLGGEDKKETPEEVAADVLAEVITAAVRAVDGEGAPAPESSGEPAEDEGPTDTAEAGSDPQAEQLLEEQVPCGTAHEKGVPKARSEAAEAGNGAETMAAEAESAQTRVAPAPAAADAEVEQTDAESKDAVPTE

compound: Nc1nc2c(ncn2[C@@H]2O[C@H](COP(=O)(O)OP(=O)(O)OP(=O)(O)O)[C@@H](O)[C@H]2O)c(=O)[nH]1; assay: dose-dependent thermal stabilisation call (2D-TPP, DLPTP, 10% FDR) (binary (1 = stabilised)); higher = stabilised by the compound; conditions: system: Jurkat gel-filtered lysate; concentration range 1-500 µM

dose-dependent thermal stabilisation call, active:
ABCF2 (UniProt Q9UG63) 1
AEBP2 (UniProt Q6ZN18) 1

dose-dependent thermal stabilisation call, inactive:
AKR1C1 (UniProt Q04828) 0
AIMP1 (UniProt Q12904) 0
ARFGEF2 (UniProt Q9Y6D5) 0
ANKRD28 (UniProt O15084) 0
AKAP8 (UniProt O43823) 0
ACACA (UniProt Q13085) 0
ALYREF (UniProt Q86V81) 0
